# Data from paper PMC12040169 (PLOS Biology, 2025).
# Some of the results follow.
# Tested on: T1, CTL2-GFP (C. trachomatis L2/434/Bu, GFP-expressing)
# T1 construct: L2/434/Bu, GFP-expressing
# Set-up: species or system HeLa; Intracellular C. trachomatis growth in HeLa cells, bulk GFP fluorescence relative to DMSO
# Conditions: bulk GFP, single well; 28.5 h, 10 µM; inhibitor
row,SMILES,% of control remaining [%]
1,COc1ncc(-c2nccnc2N[C@@H]2CCN(Cc3ccccc3)C2)c(OC)n1 [CBK036926],172.106
2,O=C(NCCc1c[nH]c2cccc(C3(O)CCCC3)c12)C1CC1 [CBK285319],139.785
3,OCc1ccccc1-c1nccnc1NCCc1cccnc1 [CBK037444],126.92
4,COc1ccc(C(=O)C2=C(O)C(=O)N(CCCO)C2c2ccc(Br)cc2)cc1 (stereo not shown) [CBK263769],100
5,CCN1CCCN(c2ccc(-n3ccc(C)n3)nn2)CC1 [CBK306297],117.263
6,CC[C@@H]1CCCCN1C(=O)c1sc2nc(C(C)=O)ccc2c1Cl [CBK091036],98.4855
7,O=c1[nH]c2ccccc2n1CCOc1ccccc1 [CBK288008],129.599
8,C[C@H](Nc1nc(-c2cccc(C(=O)NCCN(C)C)c2)cnc1N)c1ccccc1 [CBK063714],184.498
9,Cc1c(C=Cc2cc(C(=O)O)c3ccccc3n2)cc(C#N)n1C [CBK295604],134.626
10,Cc1ccc(NC(=O)CN(C)C)c(C)n1 [CBK200388],115.909
11,COCC1CCN(c2ncc(C#N)cc2Cl)CC1 [CBK306410],70.7423
12,N#Cc1c(NC(=O)CSc2nc3ccccc3s2)oc(-c2ccccc2)c1-c1ccccc1 [CBK269019],109.467
13,O=C(CCCN1C(=O)c2cccc3cccc(c23)C1=O)N1CCN(C/C=C/c2ccccc2)CC1 [CBK263300C],107.462
14,Cc1cccc(OCC(=O)Nc2ccc(-c3nc4ncccc4o3)cc2C)c1 [CBK269287],148.663
15,C(=C\CSC1=NCCN1)/CSC1=NCCN1 [CBK264266],120.288
16,O=C(O)CCNS(=O)(=O)c1ccc(Cl)c(Cl)c1 [CBK268815],139.379
17,FC(F)(F)c1ccc(CN2CCCN(c3nccc(OCc4ccc(Cl)c(Cl)c4)n3)CC2)cc1 [CBK083949],118.393
18,CC(c1ccccc1)N(C)C(=O)Cn1c(-c2cccs2)n[nH]c1=S (stereo not shown) [CBK296718],119.999
19,CN(C)c1ccc(CCNC(=O)c2cn3ccccc3n2)cc1 [CBK281916],153.011
20,COC(=O)c1ccccc1NC(=O)N1CCN(S(=O)(=O)c2ccc(Cl)cc2)CC1 [CBK266860],165.058
21,COCc1cccc(-c2nccnc2OCc2ccccn2)c1 [CBK106953],120.188
22,CCOC(=O)c1cnc2nc3ccccc3n2c1C [CBK270185],127.36
23,CN1CCN(CC(=O)N2N=C(c3c(-c4ccccc4)c4cc(Cl)ccc4[nH]c3=O)CC2c2ccccc2)CC1 (stereo not shown) [CBK267545],157.706
24,CN1CCCN(Cc2ccc([N+](=O)[O-])s2)CC1 [CBK261558],102.206
25,CC(C)c1ccc(NC(=O)C2=NNC(=O)CC2)cc1 [CBK057421],181.006
26,CN(C)CCN(C)C(=O)c1cc2cc(OC(F)(F)F)ccc2[nH]1 [CBK107316],132.001
27,Cc1[nH]c(=O)c(C#N)c(C)c1CCC(=O)NCc1cn2ccccc2n1 [CBK306325],88.0097

# A draw from above in order of length of the SMILES, smallest number first.
row,SMILES,% of control remaining [%]
19,CN(C)c1ccc(CCNC(=O)c2cn3ccccc3n2)cc1 [CBK281916],153.011
1,COc1ncc(-c2nccnc2N[C@@H]2CCN(Cc3ccccc3)C2)c(OC)n1 [CBK036926],172.106
4,COc1ccc(C(=O)C2=C(O)C(=O)N(CCCO)C2c2ccc(Br)cc2)cc1 (stereo not shown) [CBK263769],100
13,O=C(CCCN1C(=O)c2cccc3cccc(c23)C1=O)N1CCN(C/C=C/c2ccccc2)CC1 [CBK263300C],107.462
23,CN1CCN(CC(=O)N2N=C(c3c(-c4ccccc4)c4cc(Cl)ccc4[nH]c3=O)CC2c2ccccc2)CC1 (stereo not shown) [CBK267545],157.706

# Continuation.

row,SMILES,% of control remaining [%]
1,CCN1CCN(C(=O)Cc2ccc(N(C)C)cc2)CC1 [CBK200253],120.907
2,CCNC(=O)Nc1cc2cccnc2nc1-c1ccc2c(c1)OCCCO2 [CBK070695],100
3,CC(=O)Nc1ccccc1NC(=O)CN(C)S(=O)(=O)c1ccc(Cl)cc1 [CBK267373],160.988
4,O=C(Nc1ccnn1Cc1cccs1)c1cc(=O)[nH]c2ccccc12 [CBK295606],100.054
5,CC(C)(C)OC(=O)N1CCC(CNCc2c[nH]c(-c3ccccc3)n2)CC1 [CBK056718],203.395
6,CCS(=O)(=O)c1ccc(C(=O)Nc2nc3c(F)cc(F)cc3s2)cc1 [CBK287727],126.276
7,CSCCCNC(=O)N1CCN(c2ccccc2)CC1 [CBK155170],100
8,CCC(C)(C)c1ccc(S(=O)(=O)N2CCN(Cc3cc(C(=O)OC)n(C)c3)CC2)cc1 [CBK062831],61.8733
9,O=C(O)C(Cc1ccc(O)cc1)c1ccccc1 (stereo not shown) [CBK012287],127.821
10,Cc1ccc(C(=O)N/C(=C\c2ccc3c(c2)OCO3)C(=O)NCC(=O)O)cc1 [CBK265669],119.31
11,Cc1cn(CC(=O)NCC2(c3cccc(F)c3)CCCC2)nn1 [CBK281436],123.303
12,O=C(c1cncc(O)c1)N1C2CCC1CC(c1ccc(F)cc1)C2 (stereo not shown) [CBK283764],128.853
13,NC1=C(N)OC(Oc2ccccc2C(F)(F)F)=NN1 [CBK018424],101.282
14,Cc1ccc(S(=O)(=O)NCc2ccccc2)c(C)c1NS(C)(=O)=O [CBK268555],150.86
15,COCc1nc2n(n1)CC(NC1CCCc3sccc31)CC2 (stereo not shown) [CBK305116],92.311
16,Cc1cc(C)c(C(=O)NC2CCN(c3ncccc3C#N)CC2)c(=O)[nH]1 [CBK306709],108.968
17,CN1C[C@H](CNC(=O)Nc2ccc(F)c(F)c2)[C@@H](c2ccc(Cl)c(Cl)c2)C1 [CBK076770],66.0716
18,CN1C(=O)CC2(C1=O)C(=O)N(CC(=O)O)c1ccc(Cl)cc12 (stereo not shown) [CBK076107],135.281
19,CC(=O)N[C@H](CC(N)=O)C(=O)N1CCC2(C/C=C/C[C@@H]3COCC[C@@H]3NC(=O)[C@@H](CC(C)C)NC2=O)CC1 [CBK292207],145.04
20,CCCC(=O)N1CCC(c2nc3ccccn3c2NC(C)(C)C)CC1 [CBK284744],149.708
21,Cc1c(C(=O)O)sc(S(=O)(=O)N2CCN(C(=O)c3ccc(F)cc3)CC2)c1C(=O)O [CBK297118],100.14
22,CN(C)CC(=O)N1CN(C(=O)c2cccc(Br)c2)C(C)(C)C1 [CBK092206C],119.276
23,COc1ccc(-c2csc(CCNC(=O)Cc3c[nH]c(=O)[nH]c3=O)n2)cc1 [CBK285670],137.839
24,Cc1ccc(C2=CCN(CC(=O)N3CCCCC3C)CC2)o1 (stereo not shown) [CBK283556],135.171
25,CCn1cc(-c2nc3cc(S(=O)(=O)NC(C)C)ccc3n2C(C)C)cn1 [CBK307311],87.9707
26,COc1ccc(CN(CCN(C)C)C(=O)NCc2ccc(-c3ccccc3)cc2)cc1OC [CBK159293],112.144
27,COc1cccc(CCNC2CC(=O)N(c3ccc(NC(C)=O)cc3)C2=O)c1 (stereo not shown) [CBK265233],102.578

row,SMILES,% of control remaining [%]
1,CN(C)CCCC(=O)N1CCN(c2ncccn2)CC1 [CBK144523],87.1971
2,COc1cccc(N2C(=O)N[C@@H]3CCN(S(=O)(=O)c4ccccc4)[C@@H]3C2=O)c1 [CBK289283],121.734
3,N#CCCCN1CCC(Oc2cncc(OCCN3CCOCC3)n2)C1 (stereo not shown) [CBK084495],82.2847
4,COc1ccccc1CNC(=O)N[C@@H](CC(C)C)C(=O)O [CBK286722],117.997
5,O=C(NC(Cc1cccs1)c1nccs1)C1CSCN1 (stereo not shown) [CBK284805],157.604
6,NS(=O)(=O)c1ccc(NC(=S)N2CCN(CCc3ccccc3)CC2)cc1 [CBK268133],99.8655
7,COc1cccc(-c2cnc(N(C)S(C)(=O)=O)c(C(=O)NC3CCCCC3)c2)c1 [CBK106446],125.07
8,Cc1cccc(C(=O)N2CCCCC2C)c1 (stereo not shown) [CBK074052],123.395
9,CCc1cc2cc3c(cc2nc1SCC(=O)Nc1cc(OC)ccc1OC)OCO3 [CBK108546],116.564
10,N#CCCCN1C(=O)C(O)(CC(=O)c2ccccn2)c2ccccc21 (stereo not shown) [CBK307373],99.8229
11,CCOC(=O)CN1C(=O)S/C(=C/c2ccc(OCc3ccc(Br)cc3)cc2)C1=O [CBK264686],100
12,CCc1nc2c(OCCOC)cccn2c1N(C)C(=O)c1ccccc1F [CBK147722],114.775
13,O=C(CCS(=O)(=O)Cc1ccccc1)Nc1cc(C(F)(F)F)ccc1Cl [CBK268399],88.092
14,N#CCSC1=CC(=O)CC(c2ccccc2)S1 (stereo not shown) [CBK008460],90.9289
15,O=C(CN1CCOCC1)N1CCN(C(=O)c2ccc(Cl)cc2Cl)CC1 [CBK028992],115.274
16,Cc1cc(/C=C2/NC(=O)NC2=O)c(C)n1-c1ccc(S(N)(=O)=O)cc1 [CBK264747],123.557
17,CNS(=O)(=O)c1cc(C(=O)N2CCN(c3ccccc3)CC2)ccc1OC [CBK270192],143.315
18,CCC(CN1CCN(C)CC1)NC(=O)Cc1coc2cc(C)ccc12 (stereo not shown) [CBK282790],124.437
19,CCCNc1nc(Cl)nc(NCc2cccnc2)n1 [CBK261995],109.541
20,COc1ccc(Oc2cncc(OC3CCN(CC(N)=O)C3)n2)cc1OC (stereo not shown) [CBK084402],99.8612
21,Cc1cc(C)nc(N2CCC(CC(=O)Nc3ccccc3CN3CCCC3)CC2)n1 [CBK286072],92.1292
22,N#Cc1ccccc1CSc1nnc(Cc2cccc3ccccc23)n1-c1ccccc1 [CBK266633],57.3454
23,CN1CCC(N2CCN(C(=O)C3(c4ccccc4)CCCC3)CC2)CC1 [CBK149096],101.938
24,C=CCn1oc(=O)n(-c2ccc(OC)cc2)c1=O [CBK122773],135.204
25,O=C1/C(=C/c2c(NCCCn3ccnc3)nc3ccccn3c2=O)SC(=S)N1C1CCCCC1 [CBK264696],120.915
